According to patent US20240409663A1 (CONCEPT TO MEDICINE BIOTECH, published 2024):
No constants are given. Whether binding was seen depends on the method and setting. Some results given as binding are weak or reduced against the parent protein; the word gives no strength.

Amino acid sequences for entries named in this document (tags omitted). A change or cut given only in a name is not applied to a line headed by its entry. Residues count along the entry.
UniProt P51654, residues 25-559: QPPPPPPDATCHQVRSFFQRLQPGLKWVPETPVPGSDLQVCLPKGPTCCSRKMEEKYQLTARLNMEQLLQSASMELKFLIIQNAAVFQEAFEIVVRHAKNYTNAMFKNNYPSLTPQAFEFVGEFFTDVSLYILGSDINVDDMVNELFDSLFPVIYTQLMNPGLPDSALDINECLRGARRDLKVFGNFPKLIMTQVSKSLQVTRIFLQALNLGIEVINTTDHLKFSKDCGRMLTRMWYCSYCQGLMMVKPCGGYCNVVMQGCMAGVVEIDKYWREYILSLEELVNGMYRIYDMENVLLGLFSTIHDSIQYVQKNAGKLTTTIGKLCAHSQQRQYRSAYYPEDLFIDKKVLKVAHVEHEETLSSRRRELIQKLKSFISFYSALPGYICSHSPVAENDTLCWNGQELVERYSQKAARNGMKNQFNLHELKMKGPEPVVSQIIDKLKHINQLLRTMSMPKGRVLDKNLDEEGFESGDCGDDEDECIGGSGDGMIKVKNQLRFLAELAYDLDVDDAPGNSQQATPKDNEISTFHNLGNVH
UniProt Q8CFZ4: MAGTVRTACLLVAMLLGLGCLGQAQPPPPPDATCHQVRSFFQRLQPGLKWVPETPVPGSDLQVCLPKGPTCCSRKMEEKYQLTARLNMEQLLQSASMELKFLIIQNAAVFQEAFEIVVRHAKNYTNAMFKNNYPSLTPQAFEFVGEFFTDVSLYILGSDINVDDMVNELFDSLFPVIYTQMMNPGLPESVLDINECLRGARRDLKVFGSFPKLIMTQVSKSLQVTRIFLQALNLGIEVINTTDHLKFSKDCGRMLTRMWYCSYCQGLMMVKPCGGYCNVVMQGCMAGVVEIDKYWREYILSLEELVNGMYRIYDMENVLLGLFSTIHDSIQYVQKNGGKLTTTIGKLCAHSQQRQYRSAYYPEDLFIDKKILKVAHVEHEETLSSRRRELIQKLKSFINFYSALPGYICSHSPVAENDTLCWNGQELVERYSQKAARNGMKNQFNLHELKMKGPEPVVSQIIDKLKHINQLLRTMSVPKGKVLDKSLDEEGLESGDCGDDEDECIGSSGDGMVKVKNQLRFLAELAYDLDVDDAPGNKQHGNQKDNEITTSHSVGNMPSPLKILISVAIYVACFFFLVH

How the values were obtained:
[1] = target: T1, human GPC3 protein (ELISA coat) (human, UniProt P51654 25-559, limits assumed); experiment: ELISA, coated GPC3
T1 construct: protein coated on plates in the cross species ELISA

mouse GPC3 protein [2] = target: T2, mouse GPC3 protein (mouse, UniProt Q8CFZ4 25-558, limits assumed); experiment: ELISA, coated GPC3
T2 construct: protein coated on plates in the cross species ELISA

[3] = target: T1, human GPC3 protein (ELISA coat); experiment: ELISA (legend of FIG. 3)
mouse GPC3 protein [4] = target: T2, mouse GPC3 protein; experiment: ELISA (legend of FIG. 3)

binding [1]: binds | binding (mouse GPC3 protein [2]): binds | binding [3]: binds | binding (mouse GPC3 protein [4]): binds
B1: 52H5D3B8 chimeric mAb (antibody, V domains shown)
VH: QVQLQQSGAELVRPGASVKLSCKALGYTFTDYEMHWVKQTPVHGLEWIGAIHPGSGGTAYNQKFKGKATLTADKFSSTGYMELSSLTSEDSAVYYCTRFYSYAYWGQGTLVTVSA
VL: DVVMTQTPLSLPVSLGDQASISCRSSQSLVHSNGNTYLQWYLQKPGQSPKLLIYKVSNRFSGVPDRFSGSGSGTDFILKISRVEAEDLGVYFCSQSIHVPYTFGGGTKLEIK
notes: also called 52H5D3B8-VH+VL; chimeric 52H5D3B8 mAb
